# Test results taken from PubChem BioAssay (NCATS).
# The other results are listed elsewhere or left out. Shown are side measurements of this screen, not its main read-out; they come without a call. Most of these compounds were active or inconclusive in the main read-out, so they are no random draw. Potencies come from curve fits of mixed quality, noted in brackets.
# Columns and labels:
# [1] = qHTS Assay for Inhibitors of PDE-IV (AID 607); conditions: HEK293 ACTOne CNG channel cells, membrane potential fluorescence; measured here: parental cell counter-screen
# Procedure, shortened: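 The readout is membrane depolarisation from a cAMP-sensing CNG channel, detected with a potential dye at ex 535/em 590. Cells were HEK293-derived (endogenous PDE-IV) at 1000 cells/well, titrated up to 22.9 uM final.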
# [2] = Validation of Assay for Modulators of Lamin A Splicing (AID 1459); conditions: Lamin A splicing dual RFP/GFP fluorescence reporter, ratio
# Procedure, shortened: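 HeLa S3 lamin A-EGFP/DsRed2 stable clone, 600 cells/well, Opti-MEM 2% FBS; compounds by pin tool; 48 hrs, 37 °C/5% CO2; Acumen 488 nm scan, objects 10-100 um; GFP/RFP intensity ratio.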
# [3] = qHTS Assay for Modulators of Human Peripheral Myelin Protein 22 (PMP22) Expression/Activity (AID 1967); conditions: Cell-based PMP22 reporter, dual-color luciferase ratio
# Procedure, shortened: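 Luminescence ratio of Pmp22 promoter-driven green luciferase to EF-alpha-driven red luciferase, in engineered mouse MSC80 Schwann cells, served as read-out. Compounds were incubated 24h; untreated cells defined 0% Activity; curves were classified by r2, magnitude and activity.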
# [4] = qHTS Validation Assay to Find Inhibitors of Chronic Active B-Cell Receptor Signaling (AID 485345); conditions: ABC-DLBCL cells, chronic BCR signaling reporter
# Procedure, shortened: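 TMD8 ABC-DLBCL cells with dox-inducible green luciferase–IκBα fusion and red native luciferase; compounds 46 uM–3 nM, 4 h at 37C with doxycycline in 0.5% FBS IMDM. Green/red ratio normalized to basal and 10 uM MG-132.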
# [5] = Nrf2 qHTS screen for inhibitors: Validation (AID 493153); conditions: A549 ARE-Fluc reporter, 18-24 h; AC50: CellTiter-Fluor fluorescence read, measured here: cytotoxicity CellTiter-Fluor AC50; viability change: measured here: cytotoxicity max response
# Procedure, shortened: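 Concentration-response on A549 ARE_Fluc reporter cells exposed 18-24 h at 37 C, 5% CO2. Cytotoxicity read first by CellTiter-Fluor fluorescence (Ex 405/Em 525), then Nrf2 inhibition by BugLite luminescence after 15 min.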
# [6] = qHTS Assay for Lipid Storage Modulators (AID 1519); conditions: Drosophila S3 cells, BODIPY lipid droplet/cell ratio, laser cytometry, cells loaded with oleic acid
# Procedure, shortened: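 Cells seeded at 5,000 per well were treated with compounds over a concentration series and loaded with oleic acid (400 uM, as added). Lipid droplet fluorescence (488 nm excitation, 500-530 nm channel) was read by laser-scanning cytometry and normalized to 20 uM Triacsin C.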
# [7] = measured here: green reporter channel AC50, mouse Pmp22 promoter in mouse Schwann cells
# [8] = measured here: red reporter channel AC50, EF-alpha promoter control reporter in MSC80 mouse Schwann cells
# [9] = measured here: CBR control luciferase (viability counter)
# [10] = measured here: CBG/CBR ratio read-out
# [11] = measured here: cell count channel max response
# [12] = measured here: cell number channel AC50
# [13] = measured here: lipid (BODIPY) channel AC50
# [14] = measured here: lipid channel max response
smiles,measurement,setting,value
Cc1nc2sccn2c(=O)c1CCN1CCC(=C(c2ccc(F)cc2)c2ccc(F)cc2)CC1,AC50,[1],"15.8 µM [rising, partial curve]"
same,AC50,[2]; measured here: GFP channel,"31.6 µM [falling, single point]"
same,AC50,[2]; measured here: RFP channel,"25.1 µM [falling, partial curve]"
same,AC50,[3]; [7],"67.5 µM [falling, partial curve]"
same,AC50,[3]; [8],"53.6 µM [falling, partial curve]"
same,AC50,[4]; [9],"29.1 µM [falling, single point]"
CCCCOC(=O)NS(=O)(=O)c1sc(CC(C)C)cc1-c1ccc(Cn2c(CC)nc3c(C)cc(C)nc32)cc1,AC50,[2]; measured here: GFP channel,"35.5 µM [rising, single point]"
same,AC50,[2]; measured here: RFP channel,"22.4 µM [falling, partial curve]"
same,AC50,[3]; [7],"33.8 µM [falling, full curve]"
same,AC50,[3]; [8],"30.1 µM [falling, full curve]"
same,AC50,[4]; [10],"10.3 µM [falling, partial curve]"
same,AC50,[4]; [9],"29.1 µM [falling, single point]"
same,AC50,[5],"14.6 µM [falling, partial curve]"
same,viability change,[5],-31.9%
Clc1nccc2c1ccc1ccccc12,AC50,[2]; measured here: GFP channel,"12.6 µM [rising, single point]"
same,AC50,[2]; measured here: RFP channel,"12.6 µM [rising, single point]"
same,AC50,[3]; [7],"1.07 µM [rising, full curve, poor fit]"
same,viability change,[5],5.73%
NC(N)=N[C@@H](CCC(=O)O)C(=O)O,AC50,[2]; measured here: RFP channel,"5.01 µM [falling, single point]"
same,max response,[6]; [11],49.4%
same,AC50,[6]; [12],"39.8 µM [rising, single point]"
same,AC50,[6]; [13],"39.8 µM [rising, single point]"
same,max response,[6]; [14],48.8%
same,AC50,[3]; [8],"37.9 µM [falling, single point]"
C#CCN1C(C)=C(C(=O)OC)C(c2cccc([N+](=O)[O-])c2)C(C(=O)OCC)=C1C (configuration not stated),AC50,[2]; measured here: GFP channel,"35.5 µM [rising, single point]"
same,max response,[6]; [11],43.8%
same,AC50,[6]; [12],"0.0158 µM [rising, single point]"
same,AC50,[6]; [13],"0.02 µM [rising, single point]"
same,max response,[6]; [14],45.5%
same,AC50,[3]; [7],"33.8 µM [falling, partial curve]"
same,AC50,[3]; [8],"53.6 µM [falling, partial curve, poor fit]"
same,AC50,[4]; [10],"9.2 µM [falling, partial curve]"

# Quoted at random: two records from the list.
smiles,measurement,setting,value
Cc1nc2sccn2c(=O)c1CCN1CCC(=C(c2ccc(F)cc2)c2ccc(F)cc2)CC1,AC50,[4]; [9],"29.1 µM [falling, single point]"
NC(N)=N[C@@H](CCC(=O)O)C(=O)O,AC50,[6]; [13],"39.8 µM [rising, single point]"
